Measured data: PubChem BioAssay AID1671195 (Yale University, 2021)

Aim: 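Regulators of LDL receptor activity judged by labelled LDL uptake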 (primary screen)
Cells: human Huh7 hepatoma cells
Reagent: siRNA pool against human genes, 18 nM
Time to read-out: about 2 to 2.5 days of knockdown, then 8 h LDL uptake
Challenge: DiI-labelled LDL at 30 µg/ml for 8 h, in lipoprotein-deficient serum medium
Detection: 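Per-cell DiI-LDL intensity by automated imaging; well means scaled to the plate median and given as a robust z-score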
Direction: robust z-score: higher = more LDL uptake after knockdown
Active means: 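a gene counts as active if at least two replicate z-scores exceed ±2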
The deposit covers about 22,000 reagents; below is a random part of them. Over the whole deposit, about 1,510 (6.9%) were called active. 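Active includes knockdowns raising or lowering LDL uptake; positive z-scores mean more uptake, negative mean less.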

ZNF689 | robust z-score, replicate 1 = -1.72; robust z-score, replicate 2 = -0.626; robust z-score, replicate 3 = -1.25; activity call = inactive
SAGE4P | robust z-score, replicate 1 = -0.43; robust z-score, replicate 2 = -0.322; robust z-score, replicate 3 = -2.67; activity call = inactive
ZNF354A | robust z-score, replicate 1 = -0.135; robust z-score, replicate 2 = -0.19; robust z-score, replicate 3 = -0.787; activity call = inactive
HSP90AB2P | robust z-score, replicate 1 = 1.19; robust z-score, replicate 2 = 0.689; robust z-score, replicate 3 = 1.41; activity call = inactive
KRT6A | robust z-score, replicate 1 = -1.58; robust z-score, replicate 2 = -1.73; robust z-score, replicate 3 = -1.81; activity call = inactive
ANGPTL2 | robust z-score, replicate 1 = 0.359; robust z-score, replicate 2 = 1.16; robust z-score, replicate 3 = 1.76; activity call = inactive
KIR3DP1 | robust z-score, replicate 1 = -1.12; robust z-score, replicate 2 = -1.29; robust z-score, replicate 3 = -1.25; activity call = inactive
TSR1 | robust z-score, replicate 1 = 0.927; robust z-score, replicate 2 = 2.65; robust z-score, replicate 3 = 1.58; activity call = inactive
LSS | robust z-score, replicate 1 = -1.37; robust z-score, replicate 2 = -1.13; robust z-score, replicate 3 = -1.54; activity call = inactive
LPIN2 | robust z-score, replicate 1 = -0.897; robust z-score, replicate 2 = -1.42; robust z-score, replicate 3 = -1.27; activity call = inactive
TMTC3 | robust z-score, replicate 1 = -1.96; robust z-score, replicate 2 = -1.29; robust z-score, replicate 3 = -1.54; activity call = inactive
BICC1 | robust z-score, replicate 1 = -1.05; robust z-score, replicate 2 = -1.32; robust z-score, replicate 3 = -0.871; activity call = inactive

Reformatted: results already given
{"gene symbol":"ANGPTL2","robust z-score, replicate 1":0.359,"robust z-score, replicate 2":1.16,"robust z-score, replicate 3":1.76,"activity call":"inactive"}
{"gene symbol":"KIR3DP1","robust z-score, replicate 1":-1.12,"robust z-score, replicate 2":-1.29,"robust z-score, replicate 3":-1.25,"activity call":"inactive"}
